{"source": "patent US20200157197A1", "about": "(VENOMYX, published 2020)", "binders": {"B1": {"name": "Anti-PLA2 VHH (H3) (VHH)", "VHH": "QVQLQQSGGGLVQAGDSLRLSCAASGRTFRDRAMNWFRQAPGKEREFVAAIHWSDGRTYYADSVKGRFTISRDNAKNTGSLQMDSLKTEDTGVYYCAIVMAYPWTTPGGINDWGKGTLVTVSS"}}, "target": "PLA2 (purified snake venom phospholipase A2) (Crotalus adamanteus or Calloselasma rhodostoma (both named, not resolved))", "assay": "panning, phage ELISA and purified-VHH ELISA on coated toxin", "note": "No constants are given. Whether binding was seen depends on the method and setting. A result given as binding can be weak or reduced; the word gives no strength.", "data": [{"binder": "B1", "values": [{"measurement": "binding", "result": "binds"}]}]}
